According to article PMC12406728:
No constants are given. Whether binding was seen depends on the method and setting. Binding seen in cells or lysates may run through a third protein. Binding calls can cover weak binding; strength is not graded here.

Sequences of proteins named here, by UniProt entry; tags and fusion partners are left off. A change or cut given only in a name is not applied to a line headed by its entry.
UniProt P21860: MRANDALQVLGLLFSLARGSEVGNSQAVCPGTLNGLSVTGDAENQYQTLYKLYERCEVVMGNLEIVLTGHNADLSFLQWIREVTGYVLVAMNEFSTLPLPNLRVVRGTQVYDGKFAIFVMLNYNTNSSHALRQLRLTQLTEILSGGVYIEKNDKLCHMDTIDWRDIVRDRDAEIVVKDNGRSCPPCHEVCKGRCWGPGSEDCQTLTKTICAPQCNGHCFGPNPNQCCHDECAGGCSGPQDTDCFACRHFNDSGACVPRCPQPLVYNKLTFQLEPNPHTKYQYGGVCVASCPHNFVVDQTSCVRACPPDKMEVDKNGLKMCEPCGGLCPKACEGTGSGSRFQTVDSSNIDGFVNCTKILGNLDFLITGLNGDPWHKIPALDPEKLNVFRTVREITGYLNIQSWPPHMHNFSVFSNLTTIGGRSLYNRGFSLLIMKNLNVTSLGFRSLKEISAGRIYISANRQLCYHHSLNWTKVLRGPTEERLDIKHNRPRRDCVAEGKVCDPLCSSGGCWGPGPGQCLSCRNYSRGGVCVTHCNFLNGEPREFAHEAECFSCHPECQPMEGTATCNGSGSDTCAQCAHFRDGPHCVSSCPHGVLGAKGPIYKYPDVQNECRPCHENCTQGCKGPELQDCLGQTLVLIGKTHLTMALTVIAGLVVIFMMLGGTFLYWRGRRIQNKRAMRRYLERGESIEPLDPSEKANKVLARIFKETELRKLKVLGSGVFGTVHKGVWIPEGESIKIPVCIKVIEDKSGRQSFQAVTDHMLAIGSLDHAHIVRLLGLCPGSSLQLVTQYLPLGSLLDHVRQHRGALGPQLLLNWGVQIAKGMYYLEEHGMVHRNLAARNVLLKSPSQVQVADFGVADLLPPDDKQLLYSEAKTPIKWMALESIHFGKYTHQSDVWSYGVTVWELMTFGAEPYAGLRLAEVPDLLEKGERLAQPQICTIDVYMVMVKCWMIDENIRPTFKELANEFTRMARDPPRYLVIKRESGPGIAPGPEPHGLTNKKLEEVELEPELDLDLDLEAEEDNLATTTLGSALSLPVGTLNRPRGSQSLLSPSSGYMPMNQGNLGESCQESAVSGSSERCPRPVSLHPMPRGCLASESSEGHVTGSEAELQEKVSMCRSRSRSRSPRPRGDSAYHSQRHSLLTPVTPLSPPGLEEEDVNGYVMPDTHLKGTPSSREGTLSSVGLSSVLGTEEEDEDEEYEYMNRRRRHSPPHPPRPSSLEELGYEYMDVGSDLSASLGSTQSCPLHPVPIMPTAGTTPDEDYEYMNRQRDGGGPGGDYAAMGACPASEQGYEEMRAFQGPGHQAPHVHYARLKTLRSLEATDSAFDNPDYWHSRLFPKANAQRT

Experiments:
Assay in all cases: co-IP; HEK293 cells transfected with FLAG-tagged HER3 (or deletion mutant) and ASPN or empty vector; anti-FLAG beads; immunoblot for HER3, HER2, ASPN
HER3ΔIII-3xFLAG = HER3ΔIII-3xFLAG (UniProt P21860)
HER3ΔI-3xFLAG = HER3ΔI-3xFLAG (UniProt P21860)
HER3ΔI/III-3xFLAG = HER3ΔI/III-3xFLAG (UniProt P21860)

B1: human ASPN (transfected) (ligand, UniProt Q9BXN1 33-380)
chain: DMEDTDDDDDDDDDDDDDDEDNSLFPTREPRSHFFPFDLFPMCPFGCQCYSRVVHCSDLGLTSVPTNIPFDTRMLDLQNNKIKEIKENDFKGLTSLYGLILNNNKLTKIHPKAFLTTKKLRRLYLSHNQLSEIPLNLPKSLAELRIHENKVKKIQKDTFKGMNALHVLEMSANPLDNNGIEPGAFEGVTVFHIRIAEAKLTSVPKGLPPTLLELHLDYNKISTVELEDFKRYKELQRLGLGNNKITDIENGSLANIPRVREIHLENNKLKKIPSGLPELKYLQIIFLHSNSIARVGVNDFCPTVPKMKKSLYSAISLFNNPVKYWEMQPATFRCVLSRMSVQLGNFGM
B1 was tested, and the binding (HER3ΔIII-3xFLAG) was “binds”, the binding (HER3ΔI-3xFLAG) was “binds” and the binding (HER3ΔI/III-3xFLAG) was “binds weakly”.
